{"source": "paper PMC10541190", "about": "(The Journal of Clinical Investigation, 2023)", "tested_on": "SARS-CoV-2 (USA-WA1/2020)", "assay": "microbe, parasite or virus in culture", "assay_type": "cell-based", "conditions": "Severe acute respiratory syndrome coronavirus 2, Vero, 24 h, read-out: SARS-CoV-2 EC50"}
{"smiles": "CN(C)C(=O)C(CCN1CCC(O)(c2ccc(Cl)cc2)CC1)(c1ccccc1)c1ccccc1", "note": "[Loperamide]", "values": [{"measurement": "EC50", "value": 16.1, "unit": "µM"}]}
